This note sets out measurements from paper PMC4118853, “Phage Orf Family Recombinases: Conservation of Activities and Involvement of the Central Channel in DNA Binding” (PLoS ONE, 2014).

Construct, isoform or probe ends are uncertain for at least one entry. At least one verdict rests on a figure or table, not on a statement of the authors. Tags and fusion partners may be left off the protein sequences shown.

For this data set, the target named is T1, MBP-YbcN (UniProt Q47269).
T1 sequence (looked up, limits assumed): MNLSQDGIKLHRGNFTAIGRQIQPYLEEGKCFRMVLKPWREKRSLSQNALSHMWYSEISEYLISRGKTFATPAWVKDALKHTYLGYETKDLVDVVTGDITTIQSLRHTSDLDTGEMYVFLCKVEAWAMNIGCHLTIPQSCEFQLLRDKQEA
Briefly: fluorescence anisotropy. Conditions: no significant difference from duplex control; anisotropy: 100 mM Tris-HCl pH 7.0, 10 nM DNA, temperature not stated; recombinant protein; protein details: N-terminal MBP; label: 3'-fluorescein on strand 1. On the technique in general: In fluorescence polarisation assays a small probe gives low polarisation when free and higher when bound to something large.

Consider “TTTGGTCTAACTTTACCGCTACTAAATGCCGCGGATTGGTTTCGCTGAATCAGGTTATTA / TAATAACCTGATTCAGCGAAACCAATCTGCGGCATTTAGTAGCGGTAAAGTTAGACCAAA [MMT:G-fluorescein]”, for which the binding result was “binds”.
